Measured values published in PubChem BioAssay AID504834 (National Center for Advancing Translational Sciences (NCATS), 2011).
Out of some 320,000 compounds screened, about 22,000 (6.9%) were called active. This list was built around the results that the source calls inconclusive (neither active nor inactive); the mix of calls is not that of the screen. The call rests on the fitted dose curve; in most records, active means well fitted inhibition curve with a large enough effect; inconclusive means small, poorly fitted or top-dose-only effect, or another doubt; inactive means no such curve, though single readings can be large or run the other way. Potencies beside an inconclusive call are fits to weak or partial responses and may not hold up.

Experiment: Primary qHTS for delayed death inhibitors of the malarial parasite plastid, 96 hour incubation
Settings: P. falciparum luciferase reporter growth; series mostly up to 28.7 µM; activity change, negative = inhibition: at the top concentration
Method in brief: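 Parasite growth measured via integrated firefly luciferase reporter in P. falciparum. Infected erythrocytes at 2% hematocrit, 0.05% parasitemia final were treated 96 hours at 37 C under 5% CO2, and luminescence was read.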
On the % scale 0 is the no-effect control and ±100 the full control effect; potency means the concentration at half of the fitted maximal effect.

| Structure (SMILES) | activity change, negative = inhibition | Potency |
| --- | --- | --- |
| CCc1noc(C)c1C(=O)Nc1cc(S(=O)(=O)N(CC)CC)ccc1N1CCCC1 | inactive: 3.54% | – |
| COc1cccc(CNC(=O)Cn2ccc3cc(S(=O)(=O)N4CCCC4)ccc32)c1OC | – | inconclusive: 11.7 µM [inhibitor, partial curve, poor fit] |
| CC(C(=O)NCCC1=CCCCC1)N1C(=O)c2ccccc2C1=O (centres undefined) | – | active: 5.86 µM |
| COc1ccc2cc(C3CC(c4ccco4)=NN3C(=O)CCC(=O)O)c(Cl)nc2c1 (centres undefined) | – | inconclusive: 18.5 µM [inhibitor, single point] |
| c1ccc2c(Cn3ccnc3)c[nH]c2c1 | – | inconclusive: 13.1 µM [inhibitor, single point] |
| Cc1cc(NC(=O)c2c(Br)c(C)nn2C)no1 | inactive: 0.145% | – |
| COc1ccc(-c2csc(-n3ncc(C(=O)O)c3C(F)(F)F)n2)cc1 | inactive: 40.5% | – |
| Cc1csc(NC(=O)c2cc(C)on2)n1 | inactive: 422% | – |
| O=C(/C=C/c1ccc(NC(=O)c2ccccc2-c2ccccc2C(=O)O)cc1)c1ccccc1 | – | inconclusive: 8.28 µM [inhibitor, single point] |
| CCCn1c2ccccc2c2cnn(CC(=O)NCCCN3CCCCC3)c(=O)c21 | – | inconclusive: 18.5 µM [inhibitor, single point] |
| CC1=C(C(=O)OCC2CCCO2)C(c2ccc(C)cc2)C2=C(CCCC2=O)N1 (centres undefined) | – | inconclusive: 10.4 µM [inhibitor, partial curve] |
| CNC(=O)c1cc(S(=O)(=O)Nc2ccc3c(c2)OCCO3)ccc1C | – | inconclusive: 18.5 µM [inhibitor, single point] |
| CCCN(C(=O)C(C)Oc1cccc(Cl)c1)c1c(N)n(Cc2ccccc2)c(=O)[nH]c1=O (centres undefined) | – | inconclusive: 11.7 µM [inhibitor, partial curve, poor fit] |
| Cc1ccc2c(c1)c1nnc(SCC(=O)NC3CC3)nc1n2C | – | inconclusive: 13.1 µM [inhibitor, partial curve] |
| C/C(=N\NC(=O)c1nc2ccccn2c1C)c1cc2ccccc2o1 | – | inconclusive: 1.65 µM [inhibitor, single point] |
| Cc1cccc(COCC(CC(C)C)N2CCN(C(=O)c3ccc(C(C)(C)C)cc3)CCC2=O)c1 (centres undefined) | – | inconclusive: 8.28 µM [inhibitor, partial curve, poor fit] |
| Cc1ccccc1NC(=O)c1cn(-c2ccccc2)nc1-c1ccccc1 | inactive: -22.8% | – |
| CC(NC(=O)CSc1nnc(-c2cccc(S(=O)(=O)N3CCCCC3)c2)o1)C12CC3CC(CC(C3)C1)C2 (centres undefined) | – | inconclusive: 2.08 µM [inhibitor, partial curve, poor fit] |
| CCc1ccc(C(=O)CCC(=O)Nc2cccc(S(=O)(=O)N3CCCCC3)c2)cc1 | – | inconclusive: 18.5 µM [inhibitor, single point] |
| Cc1cc(OCC(O)CN2CCN(CCO)CC2)ccc1C(C)C (centres undefined) | – | active: 9.28 µM |
| Cc1ccc(C)c(N2C(=O)CC(Cc3ccc(Cl)cc3)C2=O)c1 (centres undefined) | – | inconclusive: 3.7 µM [inhibitor, single point] |
| C=CCn1c(CC(C)(C)C)nc2ccccc21 | inactive: 20.9% | – |

Complete entries from above.
COc1ccc(-c2csc(-n3ncc(C(=O)O)c3C(F)(F)F)n2)cc1 is listed with activity change, negative = inhibition: inactive: 40.5%
CCCn1c2ccccc2c2cnn(CC(=O)NCCCN3CCCCC3)c(=O)c21 is listed with Potency: inconclusive: 18.5 µM [inhibitor, single point]

(list continues)

| Structure (SMILES) | activity change, negative = inhibition | Potency |
| --- | --- | --- |
| COc1cc(/C=C/c2nc(N)nc(-c3ccccc3O)n2)cc(OC)c1OC | inactive: -16.8% | – |
| CCCC(=O)NCn1nnc(-c2ccc(Cl)cc2)n1 | – | inconclusive: 5.22 µM [inhibitor, partial curve, poor fit] |
| COc1cccc(/C=C2\CC(C)Cc3c2nc2ccccc2c3C(=O)O)c1OC (centres undefined) | – | inconclusive: 16.5 µM [inhibitor, partial curve, poor fit] |
| CCN(CCCNC(=O)CC(C(=O)N1CCc2ccccc21)n1ccnc1)c1cccc(C)c1 (centres undefined) | – | inconclusive: 18.5 µM [inhibitor, single point] |
| COc1ccc(-c2cn[nH]c2-c2ccc(OCc3ccccc3)cc2O)cc1 | – | inconclusive: 4.15 µM [inhibitor, partial curve] |
| O=C(O)CCC(=O)Nc1ccc(-n2ccc(C(F)(F)F)n2)cc1 | inactive: 58.3% | – |
| Cc1[nH]n(-c2ccccc2)c(=O)c1C(c1ccccc1[N+](=O)[O-])C(C#N)C#N (centres undefined) | inactive: -16% | – |
| COc1ccc(/C=C/c2ccc3c(Br)ccc(O)c3n2)cc1 | inactive: 6.03% | – |
| CCC(C)NC(=O)[C@H]1N2C(=O)c3c(ccc(OC)c3OC)C2SC1(C)C (some centres undefined) | inactive: -20.9% | – |
| O=C(Cc1n[nH]c(=O)[nH]c1=O)N/N=C/c1cccc(O)c1 | – | inconclusive: 18.5 µM [inhibitor, single point] |
| O=[N+]([O-])c1nn(-c2ccc3c(c2)OCCO3)n(O)c1=NCCC1=CCCCC1 | – | inconclusive: 18.5 µM [inhibitor, single point] |
| CC(C)NC(=O)CC(c1ccccc1)c1cc(Br)ccc1O (centres undefined) | – | inconclusive: 18.5 µM [inhibitor, single point] |
| O=C(O)CCn1nc(-c2ccc(F)cc2)cc(Cc2ccccc2)c1=O | – | inconclusive: 3.29 µM [inhibitor, partial curve, poor fit] |
| Cc1cc(NC(=O)CN2C(=O)NC3(CCCCC3C)C2=O)no1 (centres undefined) | – | inconclusive: 14.7 µM [inhibitor, partial curve, poor fit] |
| Cn1c(CCNC(=O)c2ccc(Cl)cc2)n[nH]c1=S | inactive: 55.5% | – |
| COc1ccc(NC(=O)CSCC(=O)N(C)Cc2ccc(Cl)c(Cl)c2)cc1 | – | inconclusive: 18.5 µM [inhibitor, single point] |
| COCC(=O)NNC(=O)c1ccccc1OC | inactive: -18.6% | – |
| NC(=O)C1CCN(S(=O)(=O)Cc2ccccc2Cl)CC1 | – | inconclusive: 18.5 µM [inhibitor, single point] |
| O=S(=O)(c1cc(Cl)ccc1Cl)N1CC2CCCN2c2ccc(C(F)(F)F)cc21 (centres undefined) | – | inconclusive: 8.28 µM [inhibitor, partial curve] |
| CS(=O)(=O)c1ccc(N2CCN(C3CC(=O)NC3=O)CC2)cc1 (centres undefined) | – | inconclusive: 14.7 µM [inhibitor, single point] |
| Cc1nc2ccc(F)cc2cc1C(=O)NCc1ccco1 | – | inconclusive: 0.208 µM [inhibitor, full curve, poor fit] |
| CC(=O)Nc1ccc(CN2CCC(CO)(CCOc3ccccc3)CC2)cc1 | – | inconclusive: 18.5 µM [inhibitor, single point] |
